# Measured values as given in the supplement of paper PMC8728848.
# Some of the results follow.
# Experiments:
# Test in all cases: glycan array binding signal (z-score within array); higher = stronger binding
# Settings in all cases: glycan notation: IUPAC condensed, linker removed; mutation: E321K
# Gal(b1-2)Gal = biological target: Gal(b1-2)Gal
# In short: (§1)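 Arrays were curated from the Consortium for Functional Glycomics database, 3228 in total, and kept only where the protein sequence was available. Binding is expressed as a within-array Z-score. This score was averaged across arrays of the same protein sequence at different concentrations or buffers and across linkers, and negative values can be read as non-binding.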
# Gal(b1-3)Gal = biological target: Gal(b1-3)Gal
# In short: as §1
# Gal(b1-3)Gal(b1-4)GlcNAc = biological target: Gal(b1-3)Gal(b1-4)GlcNAc
# In short: as §1
# Gal(b1-3)GalNAc = biological target: Gal(b1-3)GalNAc
# In short: as §1
# [1] = biological target: Gal(b1-3)GalNAc(b1-3)Gal(a1-4)Gal(b1-4)Glc
# In short: as §1
# [2] = biological target: Gal(b1-3)GalNAc(b1-4)Gal(b1-4)Glc
# In short: as §1
# [3] = biological target: Gal(b1-3)GalNAc(b1-4)[Neu5Ac(a2-3)]Gal(b1-4)Glc
# In short: as §1
# Gal(b1-3)GlcNAc = biological target: Gal(b1-3)GlcNAc
# In short: as §1
# [4] = biological target: Gal(b1-3)GlcNAc(b1-2)Man(a1-3)[Gal(b1-3)GlcNAc(b1-2)Man(a1-6)]Man(b1-4)GlcNAc(b1-4)GlcNAc
# In short: as §1
# [5] = biological target: Gal(b1-3)GlcNAc(b1-3)Gal(b1-3)GlcNAc
# In short: as §1
# [6] = biological target: Gal(b1-3)GlcNAc(b1-3)Gal(b1-4)Glc
# In short: as §1
# [7] = biological target: Gal(b1-3)GlcNAc(b1-3)Gal(b1-4)GlcNAc
# In short: as §1
# [8] = biological target: Gal(b1-3)[Fuc(a1-4)]GlcNAc
# In short: as §1
# [9] = biological target: Gal(b1-3)[Fuc(a1-4)]GlcNAc(b1-3)Gal(b1-3)[Fuc(a1-4)]GlcNAc
# In short: as §1
# [10] = biological target: Gal(b1-3)[Fuc(a1-4)]GlcNAc(b1-3)Gal(b1-4)GlcNAc
# In short: as §1
# [11] = biological target: Gal(b1-3)[Fuc(a1-4)]GlcNAc(b1-3)Gal(b1-4)[Fuc(a1-3)]GlcNAc
# In short: as §1
# [12] = biological target: Gal(b1-3)[GlcNAc(b1-6)]GalNAc
# In short: as §1
# [13] = biological target: Gal(b1-3)[Neu5Ac(a2-6)]GalNAc
# In short: as §1
# [14] = biological target: Gal(b1-3)[Neu5Ac(a2-6)]GlcNAc(b1-6)Gal(b1-4)Glc
# In short: as §1
# [15] = biological target: Gal(b1-3)[Neu5Ac(b2-6)]GalNAc
# In short: as §1
# [16] = biological target: Gal(b1-4)GalNAc(a1-3)[Fuc(a1-2)]Gal(b1-4)GlcNAc
# In short: as §1
# [17] = biological target: Gal(b1-4)GalNAc(b1-3)[Fuc(a1-2)]Gal(b1-4)GlcNAc
# In short: as §1
# Gal(b1-4)Glc = biological target: Gal(b1-4)Glc
# In short: as §1
# Gal(b1-4)Glc6S = biological target: Gal(b1-4)Glc6S
# In short: as §1
# Gal(b1-4)GlcNAc = biological target: Gal(b1-4)GlcNAc
# In short: as §1
# [18] = biological target: Gal(b1-4)GlcNAc(a1-6)Gal(b1-4)GlcNAc
# In short: as §1
# [19] = biological target: Gal(b1-4)GlcNAc(b1-2)Man(a1-3)[Gal(b1-4)GlcNAc(b1-2)Man(a1-6)]Man(b1-4)GlcNAc(b1-4)GlcNAc
# In short: as §1
# [20] = biological target: Gal(b1-4)GlcNAc(b1-3)Gal(b1-3)GlcNAc
# In short: as §1
# [21] = biological target: Gal(b1-4)GlcNAc(b1-3)Gal(b1-4)Glc
# In short: as §1
# [22] = biological target: Gal(b1-4)GlcNAc(b1-3)Gal(b1-4)GlcNAc
# In short: as §1
# [23] = biological target: Gal(b1-4)GlcNAc(b1-3)Gal(b1-4)GlcNAc(b1-3)Gal(b1-4)GlcNAc
# In short: as §1
# [24] = biological target: Gal(b1-4)GlcNAc(b1-3)Gal(b1-4)[Fuc(a1-3)]GlcNAc(b1-3)Gal(b1-4)[Fuc(a1-3)]GlcNAc
# In short: as §1
# [25] = biological target: Gal(b1-4)GlcNAc(b1-3)GalNAc
# In short: as §1
# [26] = biological target: Gal(b1-4)GlcNAc(b1-3)[Gal(b1-4)GlcNAc(b1-6)]Gal(b1-4)GlcNAc
# In short: as §1
# [27] = biological target: Gal(b1-4)GlcNAc(b1-3)[GlcNAc(b1-6)]Gal(b1-4)GlcNAc
# In short: as §1
# [28] = biological target: Gal(b1-4)GlcNAc(b1-6)Gal(b1-4)GlcNAc
# In short: as §1
# [29] = biological target: Gal(b1-4)GlcNAc(b1-6)Gal(b1-4)GlcNAc(b1-6)GalNAc
# In short: as §1
# [30] = biological target: Gal(b1-4)GlcNAc(b1-6)GalNAc
# In short: as §1
# [31] = biological target: Gal(b1-4)GlcNAc(b1-6)[Gal(b1-3)]GalNAc
# In short: as §1
# Gal3S(b1-3)GalNAc = biological target: Gal3S(b1-3)GalNAc
# In short: as §1
# Gal3S(b1-3)GlcNAc = biological target: Gal3S(b1-3)GlcNAc
# In short: as §1
# [32] = biological target: Gal3S(b1-3)[Fuc(a1-4)]GlcNAc
# In short: as §1
# Gal3S(b1-4)Glc = biological target: Gal3S(b1-4)Glc
# In short: as §1
# Gal3S(b1-4)Glc6S = biological target: Gal3S(b1-4)Glc6S
# In short: as §1
# Gal3S(b1-4)GlcNAc = biological target: Gal3S(b1-4)GlcNAc
# In short: as §1
# Gal3S(b1-4)GlcNAc6S = biological target: Gal3S(b1-4)GlcNAc6S
# In short: as §1
# [33] = biological target: Gal3S(b1-4)[Fuc(a1-3)]Glc
# In short: as §1
# Gal3S4S(b1-4)GlcNAc = biological target: Gal3S4S(b1-4)GlcNAc
# In short: as §1
# Gal3S6S(b1-4)GlcNAc = biological target: Gal3S6S(b1-4)GlcNAc
# In short: as §1
# Gal3S6S(b1-4)GlcNAc6S = biological target: Gal3S6S(b1-4)GlcNAc6S
# In short: as §1
# Gal4S(b1-4)GlcNAc = biological target: Gal4S(b1-4)GlcNAc
# In short: as §1
# Gal4S6S(b1-4)GlcNAc = biological target: Gal4S6S(b1-4)GlcNAc
# In short: as §1
# Gal6S(b1-4)Glc = biological target: Gal6S(b1-4)Glc
# In short: as §1
# Gal6S(b1-4)Glc6S = biological target: Gal6S(b1-4)Glc6S
# In short: as §1
# Gal6S(b1-4)GlcNAc = biological target: Gal6S(b1-4)GlcNAc
# In short: as §1
# Gal6S(b1-4)GlcNAc6S = biological target: Gal6S(b1-4)GlcNAc6S
# In short: as §1
# GalNAc(a1-3)Gal = biological target: GalNAc(a1-3)Gal
# In short: as §1
# GalNAc(a1-3)GalNAc = biological target: GalNAc(a1-3)GalNAc
# In short: as §1
# GalNAc(b1-3)Gal = biological target: GalNAc(b1-3)Gal
# In short: as §1
# [34] = biological target: GalNAc(b1-3)Gal(a1-4)Gal(b1-4)GlcNAc
# In short: as §1
binder,measurement,setting,value
Surfactant Protein D (Human); Neck + Carbohydrate Recognition Domain (NCRD) (Homo sapiens) (protein) MLLFLLSALVLLTQPLGYLEAEMKTYSHRTMPSACTLVMCSSVESGLPGRDRDGREGPRGEKGDPGLPGAAGQAGMPGQAGPVGPKGDNGSVGEPGPKGDTGPSGPPGPPGVPGPAGREGALGKQGNIGPQGKPGPKGEAGPKGEVGAPGMQGSAGARGLAGPKGERGVPGERGVPGNTGAAGSAGAMGPQGSPGARGPPGLKGDKGIPGDKGAKGESGLPDVASLRQQVEALQGQVQHLQAAFSQYKKVELFPNGQSVGEKIFKTAQFVKPFTEAQLLCTQAGGQLASPRSAAENAALQQLVVAKNEAAFLSMTDSKTEGKFTYPTGESLVYSNWAPGKPNDDGGSEDCVEIFTNGKWNDRACGEKRLVVCEF,glycan array binding signal (z-score),Gal(b1-2)Gal,-1.06
same,glycan array binding signal (z-score),Gal(b1-3)Gal,-0.54
same,glycan array binding signal (z-score),Gal(b1-3)Gal(b1-4)GlcNAc,-0.429
same,glycan array binding signal (z-score),Gal(b1-3)GalNAc,-0.535
same,glycan array binding signal (z-score),[1],-0.839
same,glycan array binding signal (z-score),[2],-0.012
same,glycan array binding signal (z-score),[3],1.01
same,glycan array binding signal (z-score),Gal(b1-3)GlcNAc,-0.412
same,glycan array binding signal (z-score),[4],-0.892
same,glycan array binding signal (z-score),[5],-0.483
same,glycan array binding signal (z-score),[6],-0.379
same,glycan array binding signal (z-score),[7],-0.528
same,glycan array binding signal (z-score),[8],0.236
same,glycan array binding signal (z-score),[9],0.658
same,glycan array binding signal (z-score),[10],0.755
same,glycan array binding signal (z-score),[11],-0.661
same,glycan array binding signal (z-score),[12],-0.322
same,glycan array binding signal (z-score),[13],-0.505
same,glycan array binding signal (z-score),[14],-0.225
same,glycan array binding signal (z-score),[15],-0.879
same,glycan array binding signal (z-score),[16],-0.87
same,glycan array binding signal (z-score),[17],-0.709
same,glycan array binding signal (z-score),Gal(b1-4)Glc,-0.968
same,glycan array binding signal (z-score),Gal(b1-4)Glc6S,0.006
same,glycan array binding signal (z-score),Gal(b1-4)GlcNAc,-0.591
same,glycan array binding signal (z-score),[18],1.84
same,glycan array binding signal (z-score),[19],-0.964
same,glycan array binding signal (z-score),[20],-0.871
same,glycan array binding signal (z-score),[21],-0.541
same,glycan array binding signal (z-score),[22],0.273
same,glycan array binding signal (z-score),[23],-0.186
same,glycan array binding signal (z-score),[24],0.182
same,glycan array binding signal (z-score),[25],-0.758
same,glycan array binding signal (z-score),[26],-1.08
same,glycan array binding signal (z-score),[27],-0.379
same,glycan array binding signal (z-score),[28],-0.37
same,glycan array binding signal (z-score),[29],0.372
same,glycan array binding signal (z-score),[30],0.897
same,glycan array binding signal (z-score),[31],-0.831
same,glycan array binding signal (z-score),Gal3S(b1-3)GalNAc,0.265
same,glycan array binding signal (z-score),Gal3S(b1-3)GlcNAc,0.454
same,glycan array binding signal (z-score),[32],1.02
same,glycan array binding signal (z-score),Gal3S(b1-4)Glc,1.19
same,glycan array binding signal (z-score),Gal3S(b1-4)Glc6S,-0.079
same,glycan array binding signal (z-score),Gal3S(b1-4)GlcNAc,0.351
same,glycan array binding signal (z-score),Gal3S(b1-4)GlcNAc6S,1.49
same,glycan array binding signal (z-score),[33],1.34
same,glycan array binding signal (z-score),Gal3S4S(b1-4)GlcNAc,-0.432
same,glycan array binding signal (z-score),Gal3S6S(b1-4)GlcNAc,2.54
same,glycan array binding signal (z-score),Gal3S6S(b1-4)GlcNAc6S,0.123
same,glycan array binding signal (z-score),Gal4S(b1-4)GlcNAc,0.208
same,glycan array binding signal (z-score),Gal4S6S(b1-4)GlcNAc,2.18
same,glycan array binding signal (z-score),Gal6S(b1-4)Glc,0.414
same,glycan array binding signal (z-score),Gal6S(b1-4)Glc6S,2.78
same,glycan array binding signal (z-score),Gal6S(b1-4)GlcNAc,0.536
same,glycan array binding signal (z-score),Gal6S(b1-4)GlcNAc6S,1.8
same,glycan array binding signal (z-score),GalNAc(a1-3)Gal,0.898
same,glycan array binding signal (z-score),GalNAc(a1-3)GalNAc,-0.701
same,glycan array binding signal (z-score),GalNAc(b1-3)Gal,-0.962
same,glycan array binding signal (z-score),[34],-0.999

# 3 records picked at random from the list so far, as already listed:
binder,measurement,setting,value
Surfactant Protein D (Human); Neck + Carbohydrate Recognition Domain (NCRD) (Homo sapiens) (protein) MLLFLLSALVLLTQPLGYLEAEMKTYSHRTMPSACTLVMCSSVESGLPGRDRDGREGPRGEKGDPGLPGAAGQAGMPGQAGPVGPKGDNGSVGEPGPKGDTGPSGPPGPPGVPGPAGREGALGKQGNIGPQGKPGPKGEAGPKGEVGAPGMQGSAGARGLAGPKGERGVPGERGVPGNTGAAGSAGAMGPQGSPGARGPPGLKGDKGIPGDKGAKGESGLPDVASLRQQVEALQGQVQHLQAAFSQYKKVELFPNGQSVGEKIFKTAQFVKPFTEAQLLCTQAGGQLASPRSAAENAALQQLVVAKNEAAFLSMTDSKTEGKFTYPTGESLVYSNWAPGKPNDDGGSEDCVEIFTNGKWNDRACGEKRLVVCEF,glycan array binding signal (z-score),[7],-0.528
same,glycan array binding signal (z-score),[8],0.236
same,glycan array binding signal (z-score),[30],0.897
